Laboratory results published in the supplement of paper PMC10849652.
The other results are listed elsewhere or left out. Residues, ends and D or L forms follow the SMILES beside them. *: point of attachment. Cbz = O=C(OCc1ccccc1)*

The chains behind the UniProt entries cited, without tags or fusion partners. Where a name states a change or a piece, a line headed by the entry shows the natural chain unless it says otherwise.
UniProt Q9BRX8: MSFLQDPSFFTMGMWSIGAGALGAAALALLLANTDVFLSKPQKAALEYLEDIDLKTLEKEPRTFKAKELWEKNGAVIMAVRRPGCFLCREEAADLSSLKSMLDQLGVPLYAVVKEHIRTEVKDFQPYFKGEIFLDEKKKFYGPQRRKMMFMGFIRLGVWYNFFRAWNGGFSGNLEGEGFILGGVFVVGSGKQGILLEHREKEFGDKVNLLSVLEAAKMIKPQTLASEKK
UniProt P43686, whole entry, looked up: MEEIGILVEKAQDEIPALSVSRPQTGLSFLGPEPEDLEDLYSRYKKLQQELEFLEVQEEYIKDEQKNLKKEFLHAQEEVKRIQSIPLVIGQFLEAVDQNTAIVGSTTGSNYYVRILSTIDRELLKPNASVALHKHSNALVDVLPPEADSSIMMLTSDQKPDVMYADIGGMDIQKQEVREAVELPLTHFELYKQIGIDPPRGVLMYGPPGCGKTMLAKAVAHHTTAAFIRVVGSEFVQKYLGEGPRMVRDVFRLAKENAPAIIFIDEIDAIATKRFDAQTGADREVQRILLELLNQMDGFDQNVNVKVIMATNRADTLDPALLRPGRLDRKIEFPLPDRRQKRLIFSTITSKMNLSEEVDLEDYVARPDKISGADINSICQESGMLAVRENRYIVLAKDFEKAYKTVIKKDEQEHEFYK
UniProt P51665: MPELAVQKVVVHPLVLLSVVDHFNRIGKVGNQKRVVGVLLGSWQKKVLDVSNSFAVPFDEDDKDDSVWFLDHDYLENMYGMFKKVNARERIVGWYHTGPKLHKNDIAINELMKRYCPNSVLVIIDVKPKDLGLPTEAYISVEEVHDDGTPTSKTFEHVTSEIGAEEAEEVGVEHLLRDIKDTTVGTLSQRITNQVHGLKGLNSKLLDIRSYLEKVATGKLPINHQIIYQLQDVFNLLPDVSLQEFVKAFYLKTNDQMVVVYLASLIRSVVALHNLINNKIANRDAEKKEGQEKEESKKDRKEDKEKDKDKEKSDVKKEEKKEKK
UniProt Q96I23: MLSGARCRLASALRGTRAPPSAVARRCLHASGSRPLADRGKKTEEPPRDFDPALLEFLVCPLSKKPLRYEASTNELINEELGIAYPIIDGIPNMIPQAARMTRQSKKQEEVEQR
UniProt P35998: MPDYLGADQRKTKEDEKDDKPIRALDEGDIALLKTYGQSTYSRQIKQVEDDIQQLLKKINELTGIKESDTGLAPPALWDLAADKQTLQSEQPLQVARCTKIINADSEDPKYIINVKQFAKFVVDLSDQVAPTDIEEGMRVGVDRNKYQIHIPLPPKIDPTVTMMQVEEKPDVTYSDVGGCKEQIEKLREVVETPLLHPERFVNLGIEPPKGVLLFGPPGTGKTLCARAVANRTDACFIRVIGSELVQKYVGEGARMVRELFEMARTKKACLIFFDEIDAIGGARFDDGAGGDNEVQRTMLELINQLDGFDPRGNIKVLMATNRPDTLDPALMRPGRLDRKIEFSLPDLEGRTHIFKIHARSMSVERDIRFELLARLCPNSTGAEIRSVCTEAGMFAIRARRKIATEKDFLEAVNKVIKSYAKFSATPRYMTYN
UniProt Q9Y3E5: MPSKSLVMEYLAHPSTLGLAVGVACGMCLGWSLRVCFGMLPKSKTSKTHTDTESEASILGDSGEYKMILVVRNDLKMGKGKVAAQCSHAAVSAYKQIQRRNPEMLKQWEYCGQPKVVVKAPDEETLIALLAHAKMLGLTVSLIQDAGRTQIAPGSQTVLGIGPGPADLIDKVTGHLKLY
UniProt Q8N8N7: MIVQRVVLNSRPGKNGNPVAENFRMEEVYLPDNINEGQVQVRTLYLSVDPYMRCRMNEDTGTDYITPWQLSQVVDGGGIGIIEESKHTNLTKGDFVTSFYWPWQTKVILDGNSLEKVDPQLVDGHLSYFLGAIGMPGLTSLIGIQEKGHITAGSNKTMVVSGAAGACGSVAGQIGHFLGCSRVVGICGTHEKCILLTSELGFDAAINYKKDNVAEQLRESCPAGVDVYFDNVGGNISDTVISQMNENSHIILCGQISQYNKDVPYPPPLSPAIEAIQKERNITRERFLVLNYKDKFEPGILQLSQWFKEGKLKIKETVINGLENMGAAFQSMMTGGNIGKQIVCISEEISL
UniProt P25788: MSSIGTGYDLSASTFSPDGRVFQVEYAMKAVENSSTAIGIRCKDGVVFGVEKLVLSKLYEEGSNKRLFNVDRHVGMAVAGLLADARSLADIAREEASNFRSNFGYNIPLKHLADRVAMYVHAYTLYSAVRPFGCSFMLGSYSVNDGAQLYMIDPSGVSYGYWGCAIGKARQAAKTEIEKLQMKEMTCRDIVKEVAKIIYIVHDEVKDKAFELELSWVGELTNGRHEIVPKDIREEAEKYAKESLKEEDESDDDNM
UniProt Q9P2W1: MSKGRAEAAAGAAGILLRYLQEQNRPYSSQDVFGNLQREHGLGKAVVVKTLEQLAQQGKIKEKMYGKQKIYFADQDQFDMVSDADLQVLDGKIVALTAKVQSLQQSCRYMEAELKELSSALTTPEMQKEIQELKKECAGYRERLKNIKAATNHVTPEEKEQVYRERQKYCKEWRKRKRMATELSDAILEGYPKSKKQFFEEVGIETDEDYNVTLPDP
UniProt Q13200: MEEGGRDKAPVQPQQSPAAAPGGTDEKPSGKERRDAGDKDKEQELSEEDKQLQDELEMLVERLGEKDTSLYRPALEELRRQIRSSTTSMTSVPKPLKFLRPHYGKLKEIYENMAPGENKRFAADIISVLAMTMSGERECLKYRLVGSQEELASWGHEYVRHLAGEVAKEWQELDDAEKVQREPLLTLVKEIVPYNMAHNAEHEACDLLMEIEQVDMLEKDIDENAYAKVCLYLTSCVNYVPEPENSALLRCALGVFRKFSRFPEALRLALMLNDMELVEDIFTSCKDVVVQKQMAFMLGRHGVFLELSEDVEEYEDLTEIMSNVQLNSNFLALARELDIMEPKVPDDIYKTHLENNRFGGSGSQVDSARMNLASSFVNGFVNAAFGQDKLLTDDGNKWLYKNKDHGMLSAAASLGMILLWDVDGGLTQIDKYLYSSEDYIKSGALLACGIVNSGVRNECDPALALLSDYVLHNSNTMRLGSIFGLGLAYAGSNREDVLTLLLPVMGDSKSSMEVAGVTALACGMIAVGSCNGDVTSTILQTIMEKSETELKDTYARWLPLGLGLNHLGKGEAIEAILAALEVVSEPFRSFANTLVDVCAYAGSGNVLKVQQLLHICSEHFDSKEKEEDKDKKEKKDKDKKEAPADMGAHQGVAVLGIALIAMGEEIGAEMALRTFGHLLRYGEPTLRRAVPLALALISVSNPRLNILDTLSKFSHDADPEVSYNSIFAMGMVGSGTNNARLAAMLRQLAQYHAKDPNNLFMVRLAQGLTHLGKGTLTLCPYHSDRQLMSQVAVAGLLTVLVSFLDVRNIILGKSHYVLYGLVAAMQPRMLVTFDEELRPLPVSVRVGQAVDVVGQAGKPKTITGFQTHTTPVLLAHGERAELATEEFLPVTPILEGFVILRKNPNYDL
UniProt Q93096: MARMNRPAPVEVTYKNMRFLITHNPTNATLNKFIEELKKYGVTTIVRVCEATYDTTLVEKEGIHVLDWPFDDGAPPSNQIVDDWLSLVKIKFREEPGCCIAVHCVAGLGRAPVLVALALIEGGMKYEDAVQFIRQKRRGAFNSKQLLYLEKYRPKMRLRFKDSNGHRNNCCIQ
UniProt Q14289, whole entry, looked up: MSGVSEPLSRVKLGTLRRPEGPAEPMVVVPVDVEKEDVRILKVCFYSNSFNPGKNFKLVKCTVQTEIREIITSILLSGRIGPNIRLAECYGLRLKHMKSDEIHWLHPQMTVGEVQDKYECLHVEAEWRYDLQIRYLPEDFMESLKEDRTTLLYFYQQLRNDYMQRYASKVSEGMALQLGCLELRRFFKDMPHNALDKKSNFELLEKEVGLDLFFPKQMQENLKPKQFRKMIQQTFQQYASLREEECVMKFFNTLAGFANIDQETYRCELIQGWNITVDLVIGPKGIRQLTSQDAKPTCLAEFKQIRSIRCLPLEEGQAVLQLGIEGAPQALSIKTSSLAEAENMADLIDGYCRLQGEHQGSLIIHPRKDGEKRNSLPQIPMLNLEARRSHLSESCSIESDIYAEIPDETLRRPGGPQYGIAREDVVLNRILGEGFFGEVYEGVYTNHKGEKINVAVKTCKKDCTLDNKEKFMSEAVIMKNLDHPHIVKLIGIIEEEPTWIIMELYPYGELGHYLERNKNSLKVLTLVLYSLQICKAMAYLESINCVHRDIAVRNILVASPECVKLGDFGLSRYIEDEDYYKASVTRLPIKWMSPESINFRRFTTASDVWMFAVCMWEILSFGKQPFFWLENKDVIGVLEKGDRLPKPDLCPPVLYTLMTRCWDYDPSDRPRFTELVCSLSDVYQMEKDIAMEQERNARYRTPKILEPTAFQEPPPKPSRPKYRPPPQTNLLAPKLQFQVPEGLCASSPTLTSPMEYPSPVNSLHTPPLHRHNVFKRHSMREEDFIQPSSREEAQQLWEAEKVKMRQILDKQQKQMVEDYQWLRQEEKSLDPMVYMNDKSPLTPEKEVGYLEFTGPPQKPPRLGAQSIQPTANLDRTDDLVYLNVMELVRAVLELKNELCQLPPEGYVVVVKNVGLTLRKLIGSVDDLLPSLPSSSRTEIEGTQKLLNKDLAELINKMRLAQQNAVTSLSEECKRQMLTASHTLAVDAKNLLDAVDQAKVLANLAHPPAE
UniProt Q92932: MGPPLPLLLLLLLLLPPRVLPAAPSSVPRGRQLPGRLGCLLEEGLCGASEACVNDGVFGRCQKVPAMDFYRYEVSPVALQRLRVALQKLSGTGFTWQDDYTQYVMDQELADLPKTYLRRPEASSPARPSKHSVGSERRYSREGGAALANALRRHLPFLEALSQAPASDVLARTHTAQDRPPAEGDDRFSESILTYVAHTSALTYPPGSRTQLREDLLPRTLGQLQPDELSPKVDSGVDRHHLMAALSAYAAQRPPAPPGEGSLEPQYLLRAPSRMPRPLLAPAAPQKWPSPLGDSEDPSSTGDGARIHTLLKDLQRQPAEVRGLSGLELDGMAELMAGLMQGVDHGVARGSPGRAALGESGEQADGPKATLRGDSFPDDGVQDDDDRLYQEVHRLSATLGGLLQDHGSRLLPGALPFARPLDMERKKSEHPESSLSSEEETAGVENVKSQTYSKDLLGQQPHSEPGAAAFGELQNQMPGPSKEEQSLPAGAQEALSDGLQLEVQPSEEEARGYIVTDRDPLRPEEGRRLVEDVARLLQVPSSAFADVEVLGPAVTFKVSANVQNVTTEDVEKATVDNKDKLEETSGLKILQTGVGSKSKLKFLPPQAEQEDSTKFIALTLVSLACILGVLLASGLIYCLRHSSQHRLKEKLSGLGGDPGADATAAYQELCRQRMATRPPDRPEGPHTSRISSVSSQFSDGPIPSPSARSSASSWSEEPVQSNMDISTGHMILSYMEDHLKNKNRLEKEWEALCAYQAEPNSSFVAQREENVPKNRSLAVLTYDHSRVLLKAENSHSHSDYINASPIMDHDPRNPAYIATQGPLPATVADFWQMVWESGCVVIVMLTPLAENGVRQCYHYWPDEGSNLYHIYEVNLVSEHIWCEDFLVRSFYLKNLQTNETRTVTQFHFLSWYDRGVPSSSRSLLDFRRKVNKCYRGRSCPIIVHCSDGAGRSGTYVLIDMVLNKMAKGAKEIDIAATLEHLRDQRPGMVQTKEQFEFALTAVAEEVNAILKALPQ
UniProt Q99952: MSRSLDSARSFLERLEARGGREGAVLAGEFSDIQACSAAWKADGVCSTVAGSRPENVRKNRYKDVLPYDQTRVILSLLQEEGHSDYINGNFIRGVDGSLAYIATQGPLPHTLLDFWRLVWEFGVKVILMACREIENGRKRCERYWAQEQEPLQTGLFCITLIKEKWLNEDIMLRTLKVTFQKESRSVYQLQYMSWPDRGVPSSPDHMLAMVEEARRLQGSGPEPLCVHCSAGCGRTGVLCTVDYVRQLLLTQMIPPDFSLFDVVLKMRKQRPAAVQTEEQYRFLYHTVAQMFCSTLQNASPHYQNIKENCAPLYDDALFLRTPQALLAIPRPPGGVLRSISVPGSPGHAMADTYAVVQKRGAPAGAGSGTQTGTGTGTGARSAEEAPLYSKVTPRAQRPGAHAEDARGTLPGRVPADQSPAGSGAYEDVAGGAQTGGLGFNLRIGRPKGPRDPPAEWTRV
UniProt Q9BRQ0: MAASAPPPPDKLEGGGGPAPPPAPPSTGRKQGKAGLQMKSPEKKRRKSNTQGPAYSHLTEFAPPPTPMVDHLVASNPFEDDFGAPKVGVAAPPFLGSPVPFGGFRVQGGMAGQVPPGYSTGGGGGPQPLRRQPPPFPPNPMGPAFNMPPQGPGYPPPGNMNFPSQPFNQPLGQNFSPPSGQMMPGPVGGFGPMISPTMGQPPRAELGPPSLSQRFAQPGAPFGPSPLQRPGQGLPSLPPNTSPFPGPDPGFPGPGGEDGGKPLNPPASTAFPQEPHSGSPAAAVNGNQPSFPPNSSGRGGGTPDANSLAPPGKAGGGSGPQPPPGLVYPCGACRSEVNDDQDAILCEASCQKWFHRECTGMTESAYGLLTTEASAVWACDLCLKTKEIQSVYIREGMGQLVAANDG

Legend:
Assay in all cases: log2 fold change, soluble protein after heating vs DMSO (PISA); higher = thermal stabilisation; K562 cells, 10 uM, 30 min; active = over 0.2 and 3.5 SD of the protein, either way, in both replicates (recomputed)
erlotinib = compound: C#Cc1cccc(Nc2ncnc3cc(OCCOC)c(OCCOC)cc23)c1 [erlotinib]
Summary of the method: (§1)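 Quantification of soluble protein used TMTpro 16plex LC-MS/MS, with channel sums equalised. Samples were the supernatant after 21,000xg for 90 min of pooled aliquots from K562 cells (2×10^6 cells/mL) treated with 10 μM compound for 30 min, heated for 3 min over 48°C-58°C, and extracted in PBS with 0.5% NP-40 at 4°C. Values, from duplicates, describe thermal stability against control samples on a log2 fold-change scale.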

[1] = compound: C/C(=N\NC(=O)C1=CC(=CC=C1)S(=O)(=O)N2CCOCC2)/C3=C(C=CC(=C3)Cl)O
Summary of the method: as §1

[2] = compound: C1=CC(=C(C=C1Cl)C2=NC3=NC=CN=C3C(=N2)NC4=CC=NC=C4)F
Summary of the method: as §1

[3] = compound: C1=CC(=CC=C1C2=NC3=C(N2)C=C(C=C3)C(=O)N)OC4=CC=C(C=C4)Cl
Summary of the method: as §1

[4] = compound: C1=CC2=C(C=CC(=C2)/C=C\3/C(=O)NC(=NCC4=CC=CS4)S3)N=C1
Summary of the method: as §1

[5] = compound: C1=CC2=NC=CN=C2C=C1/C=C/3\C(=O)NC(=O)S3
Summary of the method: as §1

[6] = compound: C1=CC=C2C(=C1)C3=NNC4=CC=CC(=C43)C2=O
Summary of the method: as §1

[7] = compound: C1CCN(C1)C(=O)NC2=CC=CC(=C2)NC3=NC=C(C(=N3)NCCC4=CN=CN4)Br
Summary of the method: as §1

[8] = compound: C1CN(CCC1(CC2=CC=C(C=C2)Cl)N)C3=NC=NC4=C3C=CN4
Summary of the method: as §1

IRAK-1-4 Inhibitor I = compound: C1COCCN1CCN2C3=CC=CC=C3N=C2NC(=O)C4=CC(=CC=C4)[N+](=O)[O-] [IRAK-1-4 Inhibitor I]
Summary of the method: as §1

ibrutinib = compound: C=CC(=O)N1CCC[C@@H](n2nc(-c3ccc(Oc4ccccc4)cc3)c3c(N)ncnc32)C1 [ibrutinib]
Summary of the method: as §1

[9] = compound: CC(=O)c1cnc2ccc(-c3cc(Cl)c(O)c(Cl)c3)nc2c1N[C@H]1CC[C@H](CN(C)C)CC1
Summary of the method: as §1

[10] = compound: CC(C)(O)CC(=O)NCCn1ccc2ncnc(Nc3ccc(Oc4cccc(C(F)(F)F)c4)c(Cl)c3)c21
Summary of the method: as §1

[11] = compound: CC(C)C1=C2N=C(C=C(N2N=C1)NCC3=CC=CC=C3)NCCCCCCN
Summary of the method: as §1

pinometostat = compound: CC(C)N(C[C@H]1O[C@@H](n2cnc3c(N)ncnc32)[C@H](O)[C@@H]1O)[C@H]1C[C@@H](CCc2nc3cc(C(C)(C)C)ccc3[nH]2)C1 [pinometostat]
Summary of the method: as §1

[12] = compound: CC1=C(C2=C(C=C1)C(=O)C3=CC=CC=C3N2CCCN)C
Summary of the method: as §1

[13] = compound: C1=CC=C(C=C1)C2=NC(=C(N2)C3=CC=NC=C3)C4=CC(=C(C=C4)Cl)O
Summary of the method: as §1

ralimetinib = compound: CC(C)(C)Cn1c(N)nc2ccc(-c3[nH]c(C(C)(C)C)nc3-c3ccc(F)cc3)nc21 [ralimetinib]
Summary of the method: as §1

[14] = compound: CC(C)C[C@@H](C=O)NC(=O)[C@H](CC(C)C)NC(=O)[C@H](CC(C)C)NC(=O)OCc1ccccc1
Summary of the method: as §1

[15] = compound: CC1=C(C(CC(=O)N1)C2=CC=C(C=C2)C(F)(F)F)C(=O)NC3=C(C=C4C(=C3)C=NN4)F
Summary of the method: as §1

Measured: log2 fold change

PRXL2A (UniProt Q9BRX8)
inactive: erlotinib 0.1 | [1] 0.052 | [2] -0.043 | [3] 0.114 | [4] 0.246 | [5] 0.064 | [6] -0.213 | [7] -0.102 | [8] -0.063 | IRAK-1-4 Inhibitor I 0.056 | ibrutinib -0.103 | [9] -0.129 | [10] 0.108 | [11] -0.04 | pinometostat -0.021 | [12] 0.201

PSMC4 (UniProt P43686)
inactive: erlotinib -0.05 | [1] -0.092 | [2] -0.052 | [3] -0.004 | [4] -0.023 | [5] -0.032 | [13] -0.011 | [6] 0.006 | [7] 0.04 | [8] -0.041 | IRAK-1-4 Inhibitor I -0.056 | ibrutinib -0.012 | [9] 0.022 | ralimetinib 0.014 | [10] 0.029 | [11] 0.034 | pinometostat 0.025 | [12] 0.016
active: [14] -0.249

PRUNE2 isoform 3 (UniProt Q8WUY3)
inactive: erlotinib -0.026 | [1] 0.049 | [2] -0.111 | [3] 0.129 | [4] -0.022 | [13] 0.289 | [6] -0.041 | IRAK-1-4 Inhibitor I 0.211 | [9] -0.029 | ralimetinib 0.109 | [10] -0.06 | [11] -0.165 | [14] -0.016 | pinometostat -0.093 | [15] -0.059

PSMD7 (UniProt P51665)
active: [14] -0.216
inactive: erlotinib -0.074 | [1] -0.1 | [2] -0.045 | [3] -0.023 | [4] -0.015 | [5] -0.072 | [13] 0.02 | [6] -0.009 | [7] 0.044 | [8] -0.01 | IRAK-1-4 Inhibitor I 0.055 | ibrutinib -0.006 | [9] 0.028 | ralimetinib 0.01 | [10] 0.057 | [11] 0.019 | pinometostat 0.066 | [12] -0.029

PYURF (UniProt Q96I23)
inactive: erlotinib -0.029 | [1] -0.047 | [2] 0.138 | [3] 0.048 | [4] 0.132 | [5] 0.186 | [6] 0.024 | [7] 0.032 | [8] 0.012 | IRAK-1-4 Inhibitor I 0.057 | ibrutinib 0.007 | [9] 0.105 | [10] -0.171 | [11] 0.068 | pinometostat -0.165 | [15] -0.043 | [12] 0.03

PSMC2 (UniProt P35998)
inactive: erlotinib -0.05 | [1] -0.054 | [2] -0.057 | [3] 0.008 | [4] -0.001 | [5] -0.03 | [13] 0.019 | [6] 0.02 | [7] -0.007 | [8] -0.031 | IRAK-1-4 Inhibitor I -0.024 | ibrutinib -0.009 | [9] 0.079 | ralimetinib 0.046 | [10] 0.011 | [11] 0.053 | [14] -0.183 | pinometostat 0.033 | [12] -0.039

PSD4 (UniProt Q8NDX1)
inactive: erlotinib -0.032 | [1] 0.344 | [2] -0.149 | [3] 0.003 | [4] -0.12 | [13] 0.128 | [6] -0.096 | [7] -0.053 | [8] -0.181 | IRAK-1-4 Inhibitor I -0.07 | [9] -0.152 | ralimetinib 0.293 | [10] -0.137 | [11] -0.2 | [14] 0.055 | pinometostat 0.205 | [15] -0.103 | [12] -0.071

PTRH2 (UniProt Q9Y3E5)
inactive: erlotinib 0.015 | [1] 0.048 | [2] 0.125 | [3] -0.002 | [4] 0.049 | [5] -0.004 | [13] 0.169 | [6] -0.022 | [7] -0.038 | [8] 0.007 | IRAK-1-4 Inhibitor I 0.059 | ibrutinib 0.031 | [9] 0.075 | ralimetinib 0.085 | [10] -0.065 | [11] 0.062 | [14] -0.081 | pinometostat -0.033 | [12] 0.017

PTGR2 (UniProt Q8N8N7)
inactive: erlotinib -0.015 | [1] -0.027 | [2] 0.016 | [3] -0.023 | [4] 0.365 | [5] -0.01 | [13] 0.062 | [6] 0.056 | [7] -0.023 | [8] 0.131 | IRAK-1-4 Inhibitor I 0 | ibrutinib 0.321 | [9] -0.328 | ralimetinib -0.016 | [10] -0.042 | [11] 0.121 | [14] 0.001 | pinometostat 0.074 | [12] 0.011

PSMA3 (UniProt P25788)
inactive: erlotinib -0.052 | [1] -0.075 | [2] 0.016 | [3] 0.028 | [4] -0.073 | [5] -0.025 | [13] -0.023 | [6] 0.002 | [7] -0.008 | [8] 0.044 | IRAK-1-4 Inhibitor I -0.027 | ibrutinib -0.013 | [9] 0.008 | ralimetinib 0.037 | [10] 0.071 | [11] 0.102 | [14] -0.065 | pinometostat -0.033 | [12] -0.014

PSMC3IP (UniProt Q9P2W1)
inactive: erlotinib -0.203 | [1] 0.168 | [2] 0.005 | [3] 0.011 | [4] -0.098 | [5] 0.225 | [6] -0.191 | [7] -0.106 | [8] -0.139 | ibrutinib -0.081 | [9] 0.053 | [10] -0.149 | [11] 0.051 | [15] 0.051 | [12] 0.102

PSMD2 (UniProt Q13200)
active: [14] -0.296
inactive: erlotinib -0.095 | [1] -0.095 | [2] -0.042 | [3] -0.001 | [4] -0.043 | [5] -0.024 | [13] 0.007 | [6] 0.016 | [7] 0.005 | [8] -0.021 | IRAK-1-4 Inhibitor I -0.08 | ibrutinib -0.035 | [9] 0.039 | ralimetinib 0.018 | [10] 0.021 | [11] 0.039 | pinometostat 0.019 | [12] -0.036

Reprinted from above (2 entries):
PSMC3IP (UniProt Q9P2W1)
inactive: erlotinib -0.203 | [1] 0.168 | [2] 0.005 | [3] 0.011 | [4] -0.098 | [5] 0.225 | [6] -0.191 | [7] -0.106 | [8] -0.139 | ibrutinib -0.081 | [9] 0.053 | [10] -0.149 | [11] 0.051 | [15] 0.051 | [12] 0.102

PSMD2 (UniProt Q13200)
active: [14] -0.296
inactive: erlotinib -0.095 | [1] -0.095 | [2] -0.042 | [3] -0.001 | [4] -0.043 | [5] -0.024 | [13] 0.007 | [6] 0.016 | [7] 0.005 | [8] -0.021 | IRAK-1-4 Inhibitor I -0.08 | ibrutinib -0.035 | [9] 0.039 | ralimetinib 0.018 | [10] 0.021 | [11] 0.039 | pinometostat 0.019 | [12] -0.036

(cont.)

PTP4A1 (UniProt Q93096)
inactive: erlotinib 0.053 | [1] 0.083 | [2] 0.134 | [3] 0.037 | [4] -0.042 | [5] 0.038 | [13] 0.062 | [6] 0.027 | [7] -0.096 | [8] -0.127 | IRAK-1-4 Inhibitor I -0.011 | ibrutinib -0.05 | [9] 0.092 | ralimetinib -0.096 | [10] 0.013 | [11] -0.049 | [14] -0.062 | pinometostat -0.02 | [12] -0.179

PTK2B (UniProt Q14289)
inactive: erlotinib 0.225 | [1] 0.063 | [3] 0.059 | [4] 0.048 | [5] 0.058 | [13] 0.008 | [6] -0.066 | [7] 0.025 | [8] 0.105 | IRAK-1-4 Inhibitor I -0.095 | ibrutinib -0.257 | [9] -0.018 | ralimetinib 0.178 | [10] -0.026 | [11] -0.244 | [14] 0.052 | pinometostat 0.004 | [12] 0.061

PTPRN2 isoform 3 (UniProt Q92932)
inactive: [1] -0.075 | [2] -0.017 | [4] 0.339 | [5] -0.23 | [6] 0.027 | IRAK-1-4 Inhibitor I -0.108 | ibrutinib 0.047 | [9] -0.455 | [10] 0.085 | pinometostat 0.114 | [15] 0.178

PTPN18 (UniProt Q99952)
inactive: erlotinib -0.087 | [3] -0.037 | [13] 0.064 | IRAK-1-4 Inhibitor I -0.23 | ralimetinib 0.144 | [11] 0.072 | [14] -0.135 | pinometostat 0.004 | [15] 0.118

PYGO2 (UniProt Q9BRQ0)
inactive: erlotinib -0.036 | [2] 0.138 | [3] 0.129 | [5] 0.046 | [13] -0.204 | IRAK-1-4 Inhibitor I 0.04 | ibrutinib -0.023 | ralimetinib -0.104 | [10] 0.14 | [11] 0.139 | [14] 0.151 | pinometostat -0.002 | [15] 0.005
